# Results deposited as PubChem BioAssay AID1259424 (University of Nebraska Medical Center, 2018).
# Assay: 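Rank knockdowns across the genome by resemblance to the KSR1 depletion profile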 (primary screen)
# Cell system: human HCT116 colon cancer cells
# Knock-down reagent: siRNA pool against human genes, 50 nM
# Measurement: 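Six signature mRNAs by branched-DNA multiplex assay, scaled to two housekeeping genes and non-targeting median, log2; matched to mean KSR1 knockdown profile by Pearson correlation and euclidean distance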
# Scale: mean correlation with KSR1 profile: higher = expression change more like KSR1 knockdown
# Here is a random part of about 14,000 reagents tested. 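Higher correlation or smaller distance means closer resemblance to KSR1 loss; control wells, including KSR1 knockdowns, recur on many plates.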 A reagent listed more than once was tested more than once; the source does not tell the runs apart. Not all columns of the deposit are shown. Reagent sequences are not shown. Not given: the time to read-out.
Gene,mean correlation with KSR1 profile
IP6K1,0.951
UBE2W,0.21
NME3,0.763
HSPA4L,0.469
ART3,-0.456
HSAJ2425 (retired record),0.242
APOL1,-0.231
RGN,-0.646
ESRRA,0.0879
CRIP1,0.928
CFHR3,-0.511
ECM1,-0.732
ADAMTSL3,0.403
ADAMTSL3,0.0245
TFF2,0.2
DNAJB1,0.363
DEPTOR,-0.305
RGL4,-0.743
HMGN2,0.343
PPP6R2,0.442
MYH6,-0.0794
XAF1,0.0333
SAXO6,-0.54
FOXRED1,0.352
ORAI2,0.652
ATOX1,-0.0306
MT1E,-0.55

Continued (6 carried over from the part before).
Gene,mean correlation with KSR1 profile
XAF1,0.0333
SAXO6,-0.54
FOXRED1,0.352
ORAI2,0.652
ATOX1,-0.0306
MT1E,-0.55
ZNF442,0.28
PRKCG,0.448
FGG,0.373
PCDH7,-0.0962
PYROXD2,0.186
NSUN5,0.345
PPP1R14C,0.747
HJURP,-0.0114
TRIM66,-0.375
SLX9,0.874
NAALAD2,0.0571
PLG,0.0798
NEK4,0.727
PNPO,-0.795
TDRKH,-0.66
VN1R3,0.518
OR1C1,0.182
ZNF823,-0.195
PCDHGA10,0.145
NDUFA3,0.13
ACTRT3,0.83
FOXO3,-0.355
MAPKAPK5,-0.196
